Results deposited as PubChem BioAssay AID1671195 (Yale University, 2021)
In all, the deposit lists about 22,000 reagents; shown is an unselected part. About 1,510 of them (6.9%) count as active. 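Active includes knockdowns raising or lowering LDL uptake; positive z-scores mean more uptake, negative mean less.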

Purpose: 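Knockdowns that increase or decrease uptake of fluorescent LDL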 (primary screen)
Cells: human Huh7 hepatoma cells
Reagents: siRNA pool against human genes, 18 nM
Time to read-out: about 2 to 2.5 days of knockdown, then 8 h LDL uptake
Treatment: DiI-labelled LDL at 30 µg/ml for 8 h, in lipoprotein-deficient serum medium
Measured: 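Fluorescent LDL signal imaged in cells, scaled to the plate median, robust z-score for each replicate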
Reading the numbers: robust z-score: higher = more LDL uptake after knockdown
Call rule: 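Active when two or more replicates show a robust z-score above 2 or below -2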

| gene | PubChem SID | robust z-score, replicate 1 | robust z-score, replicate 2 | robust z-score, replicate 3 | Call |
| --- | --- | --- | --- | --- | --- |
| ORMDL2 | SID442887009 | 1.69 | -0.0912 | 1.43 | inactive |
| LOC440946 (retired record) | SID442889147 | 0.353 | 0.642 | 0.822 | inactive |
| RUBCNL | SID442895988 | 0.00894 | -0.452 | -0.237 | inactive |
| LARP1 | SID442887627 | 0.699 | 1.01 | 0.914 | inactive |
| FPGT | SID442892814 | 0.135 | -0.249 | 0.476 | inactive |
| ADRA2B | SID442904243 | -1.71 | -1.08 | -1.84 | inactive |
| ABTB2 | SID442883163 | 2.94 | 3.93 | 6.04 | active |
| LAIR2 | SID442884769 | -1.75 | -2.62 | -1.73 | inactive |
| HINT1 | SID442889904 | 0.722 | 0.0862 | 0.666 | inactive |
| LRPAP1 | SID442896046 | -0.576 | 0.637 | -0.758 | inactive |
| BEX1 | SID442884211 | 2.64 | 2.51 | -0.0924 | active |
| FOXP1 | SID442898827 | 0.0363 | -0.665 | -0.998 | inactive |
| CTHRC1 | SID442901706 | -1.16 | -0.664 | -1 | inactive |
| TGFBRAP1 | SID442892803 | 2.15 | -1.24 | -0.547 | inactive |
| MOGS | SID442891183 | -0.0609 | 0.638 | 0.384 | inactive |
| TTC1 | SID442890993 | 0.119 | 0.5 | 0.413 | inactive |
| SLC25A46 | SID442887520 | 0.924 | 1.24 | 0.523 | inactive |
| EMP3 | SID442888041 | 0.18 | 1.1 | 1.09 | inactive |
| DNAJC5B | SID442888282 | 0.874 | 0.281 | 1.09 | inactive |
| APOL6 | SID442900206 | -0.88 | -0.619 | -0.689 | inactive |
| ATP5MC3 | SID442902615 | -0.868 | -1.38 | -1.1 | inactive |
| TOR2A | SID442898727 | 0.0162 | -1.66 | 0.0549 | inactive |
| EDEM1 | SID442895317 | -0.104 | -0.303 | -0.0657 | inactive |
| LOC440277 (retired record) | SID442900652 | -0.697 | -1.01 | -0.658 | inactive |
| ADAMTSL4 | SID442896541 | -1.35 | 0.0411 | 0.457 | inactive |
| ABL2 | SID442883248 | 4.18 | 2.59 | 4.17 | active |
| IL13RA1 | SID442886649 | 0.855 | 1.22 | 1.21 | inactive |
| RAB5B | SID442892756 | -0.64 | 1.22 | -0.2 | inactive |
